Where “and” joins values, the source holds several entries; their conditions need not be identical. Equal entries are not always repeated. Some of the results follow. This data set is noisy: repeats of one test often differ as much as different tests do.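 HEK293T cells were given each compound shortly before transfection with a reporter in which red mCherry is followed by the SARS-CoV-2 frameshift element and then GFP in the −1 frame, so GFP appears only after frameshifting.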

Drawing on the supplement of paper PMC8256030, this text covers percent viability for 29 compounds.

The assay relates to HEK293T. The assay can be described thus: percent viability (nuclei count) relative to control; higher = more viable cells. The settings on record: 10 µM; 24 h.
As for `CCCCC(C)(O)C/C=C/[C@H]1[C@H](O)CC(=O)[C@@H]1CCCCCCC(=O)OC` (some centres undefined) [Cytotec], the percent viability came out at 237%.

Turning to `COc1cc([C@@H]2c3cc4c(cc3[C@@H](O[C@@H]3O[C@@H]5CO[C@@H](c6cccs6)O[C@H]5[C@H](O)[C@H]3O)[C@H]3COC(=O)[C@H]23)OCO4)cc(OC)c1O`, the percent viability came to 58.5%.

As to `CCN1CCN(C(=O)N[C@@H](C(=O)N[C@@H]2C(=O)N3C(C(=O)O)=C(CSc4nnnn4C)CS[C@H]23)c2ccc(O)cc2)C(=O)C1=O` [Cefoperazone acid], the percent viability stood at 178%.

With `N[C@@H](COP(=O)(O)O)C(=O)O` [dexfosfoserine], the percent viability turned out to be 196%.

With `CN(C)CCC=C1c2ccccc2C=Cc2ccccc21`, the percent viability was 416%.

Consider `CC(C)NC[C@H](O)c1ccc(O)c(O)c1` [levisoprenaline], for which the percent viability turned out to be 176%.

Consider `CCCCOc1ccc(C(=O)CCN2CCCCC2)cc1`, for which the percent viability is 189% and 175%.

For `Cc1ncc(CO)c(CO)c1O` [pyridoxine], the percent viability was found to be 304%.

As for `C[C@@H]1C[C@H]2[C@@H]3C[C@H](F)C4=CC(=O)C=C[C@]4(C)[C@H]3[C@@H](O)C[C@]2(C)[C@@]1(O)C(=O)CO` [paramethasone], the percent viability worked out at 414%.

As for `C[C@@H]1[C@H](O)[C@@H](C)/C=C/C=C/C=C/C=C/C=C/C=C/C=C/[C@H](O[C@@H]2O[C@H](C)[C@@H](O)[C@H](N)[C@@H]2O)C[C@@H]2O[C@](O)(C[C@@H](O)C[C@@H](O)[C@H](O)CC[C@@H](O)C[C@@H](O)CC(=O)O[C@H]1C)C[C@H](O)[C@H]2C(=O)O`, the percent viability came to 234%.

For `CC(=O)O[C@H]1C(=O)[C@@]2(C)[C@H]([C@H](OC(=O)c3ccccc3)[C@]3(O)C[C@H](OC(=O)[C@H](O)[C@@H](NC(=O)c4ccccc4)c4ccccc4)C(C)=C1C3(C)C)[C@]1(OC(C)=O)CO[C@@H]1C[C@@H]2O`, the percent viability is 22.2%.

Turning to `CO[C@H]1C[C@H](O[C@H]2[C@H](C)[C@@H](O[C@@H]3O[C@H](C)C[C@H](N(C)C)[C@H]3OC(C)=O)[C@@H](C)C[C@@]3(CO3)C(=O)[C@H](C)[C@@H](OC(C)=O)[C@@H](C)[C@@H](C)OC(=O)[C@@H]2C)O[C@@H](C)[C@@H]1OC(C)=O` [troleandomycin], the percent viability was 181%.

With `CO[C@H](C(=O)[C@@H](O)[C@@H](C)O)[C@@H]1Cc2cc3cc(O[C@H]4C[C@@H](O[C@H]5C[C@@H](O)[C@H](O)[C@@H](C)O5)[C@H](O)[C@@H](C)O4)c(C)c(O)c3c(O)c2C(=O)[C@H]1O[C@H]1C[C@@H](O[C@H]2C[C@@H](O[C@H]3C[C@](C)(O)[C@H](O)[C@@H](C)O3)[C@@H](O)[C@@H](C)O2)[C@H](O)[C@@H](C)O1` [plicamycin], the percent viability was found to be 18.6%.

`Nc1c2c(nc3ccccc13)CCCC2` [tacrine]: the percent viability came to 303%.

As to `C[C@H]1O[C@@H](n2cc(F)c(=O)[nH]c2=O)[C@H](O)[C@@H]1O` [doxifluridine], the percent viability is 177%.

In the case of `CC1=C[C@H](O)CC(C)(C)[C@H]1/C=C/C(C)=C/C=C/C(C)=C/C=C/C=C(C)/C=C/C=C(C)/C=C/C1=C(C)C[C@@H](O)CC1(C)C`, the percent viability is 216%.

Regarding `CC1=C(C/C=C(\C)CCC[C@H](C)CCC[C@H](C)CCCC(C)C)C(=O)c2ccccc2C1=O` [Mephyton], the percent viability came to 266%.

For the compound `CN(C)CC(c1ccc(O)cc1)C1(O)CCCCC1` (centres undefined) [desvenlafaxine], the percent viability was found to be 152%.

With `CCCCCCCCCCCCOCCCN` [laurixamine], the percent viability came out at 132%.

Turning to `C[n+]1cc2c3c(ccc2c2ccc4cc5c(cc4c21)OCO5)OCO3`, the percent viability was determined as 29.8%.

As to `O=C([O-])CN1CCN(CC(=O)[O-])CCN([C@H](CO)[C@H](O)CO)CCN(CC(=O)[O-])CC1.[Gd+3]` (racemic) [gadobutrol], the percent viability amounted to 439%.

On to `C1=CN2CC(c3cccs3)N=C2S1` (centres undefined) [antienite], for which the percent viability was 189%.

For the compound `Nc1ccc(S(=O)(=O)Nc2ccccc2)cc1` [sulfabenz], the percent viability worked out at 45.8%.

With `CCN(CC)CCNC(=O)c1ccc(NC(C)=O)cc1`, the percent viability was found to be 398%.

For `CC(C)NC[C@H](O)COc1cccc2ccccc12` [Propranolol S(-)], the percent viability was found to be 249%.

Regarding `COCCOC(=O)C1=C(C)NC(C)=C(C(=O)OC/C=C/c2ccccc2)C1c1cccc([N+](=O)[O-])c1` (centres undefined) [Cilnidipine], the percent viability was 333%.

For `CCO/C([O-])=N/c1c[n+](N2CCOCC2)no1`, the percent viability is 157%.

Turning to `O=C1NCCNC1c1cccs1` (centres undefined) [tenilsetam], the percent viability came out at 244%.

Consider `CC(CC(c1ccccc1)c1ccccc1)NC(C)(C)C` (centres undefined) [terodiline], for which the percent viability was 64.4%.
